PubChem BioAssay AID1347076 (National Center for Advancing Translational Sciences (NCATS), 2019)
The whole screen tested about 400,000 compounds, of which about 13,000 (3.2%) were called active. Inconclusive means that the source gave no clear call. Such entries were picked first, then a sample of the others. The call rests on the fitted dose curve; in most records, active means well fitted cell-killing curve with a large enough effect; inconclusive means small, poorly fitted or top-dose-only effect, or effect the other way; inactive means flat fitted curve, though single readings scatter. Potencies beside an inconclusive call are fits to weak or partial responses and may not hold up.
On the % scale 0 is the no-effect control and ±100 the full control effect; potency means the concentration at half of the fitted maximal effect.

Experiment: qHTS assay for MDR1-selective chemotherapeutics: Primary screen using the drug-selected MDR subline cells KB-V1; further: nearly all actives have a fitted effect of over 60% in size
Conditions: KB-V1 MDR cells viability, CellTiter-Glo, 72 h; activity change, negative = cytotoxicity: at 46.1 µM (top of the series)
Procedure, shortened: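 qHTS viability screen in drug-selected KB-V1 MDR cells: 72 h compound treatment at 37 degrees C, ATP luminescence end point.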
In the case of `Cc1cc(-c2nnc(-c3cccc(C(F)(F)F)c3)o2)no1`, the Potency is reported as “inactive”.
For `O=C(CC(NCc1ccccn1)C(=O)O)Nc1ccccc1Cl` (stereo not drawn), the Potency was inconclusive: 29.1 µM [cytotoxic, single point].
In the case of `Cc1ccc(C(=O)NC(C(=O)OCc2cn3cc(Cl)ccc3n2)C(C)C)cc1` (stereo not drawn), the Potency is reported as “inactive”.
For `CN1CCN(CCC=C2c3ccccc3Sc3ccc(S(=O)(=O)N(C)C)cc32)CC1`, the Potency was inconclusive: 18.4 µM [cytotoxic, partial curve].
With `O=C(C#Cc1ccccc1)c1cccc([N+](=O)[O-])c1` the Potency was inconclusive: 29.1 µM [cytotoxic, single point].
With `COc1ccc(CCNC(=O)COC(=O)c2ccc(N3CCCC3=O)cc2)cc1` the Potency was inconclusive: 29.1 µM [rising, single point].
For `COc1cccc(Nc2nc3ccccc3n3nnnc23)c1`, the Potency was inconclusive: 25.9 µM [cytotoxic, single point].
With `O=C(N1CCN(c2ccccc2F)CC1)C12CC3CC(CC(C3)C1)C2` the Potency was active: 18.4 µM.
With `CCCCc1cc(=O)oc2cc(C)cc(O)c12` the Potency was inconclusive: 29.1 µM [cytotoxic, single point].
With `CCc1ccc(CNC(=O)CCCn2ccc3cc(S(=O)(=O)N4CCCC4)ccc32)cc1` the Potency was inconclusive: 23.1 µM [cytotoxic, partial curve, poor fit].
For `OC(CNc1nc(C(F)(F)F)nc2ccccc12)c1ccccc1` (stereo not drawn), the Potency was active: 11.6 µM.
In the case of `CC(C)c1ccc(S(=O)(=O)/N=C2\C=C(NS(=O)(=O)c3ccccc3)C(=O)c3ccccc32)cc1`, the activity change, negative = cytotoxicity is reported as inconclusive: -33.9%.
In the case of `COc1ccccc1NC(=O)CN1CCN(CC(=O)Nc2ccc(S(N)(=O)=O)cc2)CC1`, the Potency is reported as “inactive”.
In the case of `COc1ccc(C(=O)Nn2c(SCC(=O)N3CCC(C)CC3)nc3ccccc3c2=O)cc1`, the Potency is reported as active: 5.17 µM.
In the case of `CC(=O)Nc1ccc(SCC(=O)OCC(=O)NC(=O)NCc2ccco2)cc1`, the Potency is reported as inconclusive: 23.1 µM [rising, partial curve].
In the case of `CC(C)(C)c1ccc(OCCOc2ccc(C(C)(C)C)cc2NC=O)c(NC=O)c1`, the Potency is reported as inconclusive: 23.1 µM [cytotoxic, single point].
With `CCOC(=O)C1CCCN(C(=O)c2cc(C)n(C(C)(C)C)n2)CC1` (stereo not drawn) the Potency was “inactive”.
For `O=C(CN1CCN(Cc2ccccc2)CC1)Nc1cccc(C(F)(F)F)c1`, the Potency was active: 16.4 µM.
In the case of `COc1ccc(-c2cc(-c3ccc(C)cc3)nc3c2COc2ccccc2-3)cc1`, the Potency is reported as “inactive”.
In the case of `O=C(c1ccccc1Br)N1CCCC(c2nc(-c3cccs3)no2)C1` (stereo not drawn), the Potency is reported as inconclusive: 16.4 µM [cytotoxic, single point].
In the case of `Cc1nc(-c2ccccc2)sc1C1(C)CC(c2c(Cl)cccc2Cl)=NO1` (stereo not drawn), the Potency is reported as inconclusive: 29.1 µM [cytotoxic, partial curve, poor fit].
With `COc1ccc(CCNC(=O)Cc2ccc(OC)c(OC)c2)cc1OC` the Potency was inconclusive: 32.6 µM [cytotoxic, single point].
With `CC(C)OCCCNC(=O)Nc1cccc2ccccc12` the Potency was “inactive”.
For `CN(C)c1ccc(CN(C(=O)COc2ccc(Br)cc2)C2CCS(=O)(=O)C2)cc1` (stereo not drawn), the Potency was active: 8.2 µM.
In the case of `CCCCOC(=O)c1ccc(NC(=O)C(=O)NCCN(CC)CC)cc1`, the Potency is reported as inconclusive: 20.6 µM [cytotoxic, partial curve, poor fit].
In the case of `Cc1cc(C)c2cc(CN(CC3CCCO3)C(=S)NCc3ccco3)c(=O)[nH]c2c1` (stereo not drawn), the Potency is reported as inconclusive: 20.6 µM [cytotoxic, single point].
For `N#Cc1c(-c2ccc(Cl)cc2)cc(-c2cccs2)nc1SCC(=O)O`, the Potency was “inactive”.
In the case of `COc1cccc(-c2nc3ccccc3s2)c1`, the Potency is reported as inconclusive: 5.17 µM [rising, full curve, poor fit].
For `COc1cccc(NC(=O)C2CCN(c3ccc(Sc4ccc(C)cc4)nn3)CC2)c1`, the Potency was “inactive”.
With `CCC1NC(=O)c2cc3ccccc3cc2-n2c1nc1ccc(OC)cc1c2=O` (stereo not drawn) the Potency was inconclusive: 29.1 µM [rising, single point].
In the case of `COc1ccc(NC(=O)CN2C(=O)COc3ccc(S(=O)(=O)N4CCOCC4)cc32)cc1`, the Potency is reported as inconclusive: 18.4 µM [rising, single point].
With `Cc1ccnc(SCCn2c(N3CCCCC3)nc3c2c(=O)n(C)c(=O)n3C)n1` the Potency was active: 18.4 µM.
For `O=C(Nc1ccc(F)cc1)C(c1cccc(F)c1)N1CCN(c2cccc(C(F)(F)F)n2)CC1` (stereo not drawn), the Potency was inconclusive: 14.6 µM [cytotoxic, partial curve].
With `Cc1ccc(C)c(NC(=O)Cn2cc(C(=O)C3CC3)c3ccccc32)c1` the Potency was inconclusive: 9.2 µM [cytotoxic, partial curve].
For `COc1cccc(NC(=O)C2CCC(CNS(=O)(=O)c3ccc4c(c3)CCCC(=O)N4)CC2)c1` (stereo not drawn), the Potency was “inactive”.
For `CCn1cc(CNC(=O)c2cc(-c3ccc(C)cc3)nc3ccc(Br)cc23)c(C)n1`, the Potency was “inactive”.
For `COc1ccc(CCN(C)C(=O)c2cc(-c3ccc(C)cc3)nc3ccccc23)cc1OC`, the Potency was “inactive”.
For `CSc1ccc(CN2CCN(C(=O)CC(C)C)CC2)cc1`, the Potency was “inactive”.
For `Cc1cc(=O)oc2cc(NC(=O)CCOc3ccccc3)ccc12`, the Potency was inconclusive: 0.082 µM [cytotoxic, full curve].
In the case of `COc1cccc(C(=O)N2C(C(C)C)COc3cc(Br)ccc3S2(=O)=O)c1` (stereo not drawn), the Potency is reported as “inactive”.
With `Cc1ccc(S(=O)(=O)NC(C)(C)CSc2ncccn2)cc1` the Potency was inconclusive: 18.4 µM [cytotoxic, single point].
For `CCCN(C)C1CN(Cc2cn(Cc3ccc(C(F)(F)F)cc3)nn2)S(=O)(=O)C1` (stereo not drawn), the Potency was inconclusive: 16.4 µM [cytotoxic, partial curve].
With `COc1ccc(-c2cc(=O)oc3cc(OC(=O)C4CCCCC4)ccc23)cc1` the Potency was inconclusive: 25.9 µM [rising, single point].
For `CC(C)Oc1ccc(S(=O)(=O)N2CCCCC2)cc1NC(=O)C1=COCCO1`, the Potency was inconclusive: 8.2 µM [cytotoxic, partial curve].
For `CC(=O)N1CCN(CCS(=O)(=O)c2ccc(Br)cc2)CC1`, the Potency was “inactive”.
For `COc1cccc(NCc2nnc(SC(C(=O)N(C)C)c3ccccc3)n2C2CCCCC2)c1` (stereo not drawn), the Potency was “inactive”.
For `Cc1csc2nc(COC(=O)CNC(=O)c3ccc(Cl)cc3)cc(=O)n12`, the activity change, negative = cytotoxicity was inconclusive: -21.9%.
For `CC(/C=C/c1ccccc1)=N/NC(=O)CNC(=O)c1ccc2c(c1)OCO2`, the Potency was “inactive”.
For `O=S(=O)(c1cccs1)N1CCN(CCOc2ccccc2)CC1`, the Potency was inconclusive: 29.1 µM [cytotoxic, single point].
In the case of `Cc1sc2ncn(CC(=O)N3CCN(c4ccccc4F)CC3)c(=O)c2c1S(=O)(=O)N1CCC(C)CC1`, the Potency is reported as “inactive”.
With `O=C(Nc1ccccc1C(=O)Nc1cccnc1)c1ccccc1` the Potency was inconclusive: 29.1 µM [rising, single point].
With `O=c1c2ccccc2oc2ccc(Oc3ccccc3)cc12` the Potency was inconclusive: 16.4 µM [cytotoxic, single point].
In the case of `COc1cc(NC(=S)N2CCCC(C)C2)c(OC)cc1Cl` (stereo not drawn), the Potency is reported as inconclusive: 29.1 µM [cytotoxic, single point].
For `Cc1nc2ccccc2n1-c1ccccc1`, the Potency was “inactive”.
With `CCC1CCCCN1C(=O)COC(=O)c1cc(=O)[nH]c2ccccc12` (stereo not drawn) the Potency was active: 18.4 µM.
For `Cc1ccc(NC(=O)C2(C)Cc3ccccc3C(=O)O2)c(C)c1` (stereo not drawn), the Potency was inconclusive: 29.1 µM [cytotoxic, partial curve, poor fit].
With `COc1ccc(Cc2nnc3n2N=C(c2cc4ccccc4o2)CS3)cc1OC` the Potency was inconclusive: 20.6 µM [cytotoxic, partial curve, poor fit].
For `Cc1cccc(NC(=O)CNC(=O)c2cccc(-n3cccc3)c2)c1C`, the Potency was inconclusive: 29.1 µM [cytotoxic, single point].
In the case of `CCN(CC)S(=O)(=O)c1cccc(NC(=O)COc2ccc(F)cc2Br)c1`, the Potency is reported as inconclusive: 13 µM [cytotoxic, partial curve].
In the case of `O=C(Nc1ccc(N2CCOCC2)cc1)c1ccc(Cl)nc1`, the Potency is reported as “inactive”.
In the case of `COc1ccc(NC(=O)c2sc(=O)n(Cc3ccc(S(=O)(=O)N(C)C)cc3)c2C)cc1`, the Potency is reported as active: 9.2 µM.
With `Cc1ccc(NC(=O)N2CCN(C(=O)c3ccco3)CC2)cc1Cl` the Potency was inconclusive: 23.1 µM [cytotoxic, single point].
With `CCOC(=O)c1ccc(NC(=S)NCc2ccc(S(N)(=O)=O)cc2)cc1` the Potency was inconclusive: 18.4 µM [rising, single point].
With `O=C1C=C(NCc2ccc(Cl)c(Cl)c2)C2(CCCCC2)O1` the Potency was inconclusive: 13 µM [cytotoxic, partial curve, poor fit].
With `CCCCc1ccc(-n2c(Cc3cccs3)n[nH]c2=S)cc1` the Potency was inconclusive: 16.4 µM [cytotoxic, single point].
In the case of `Cc1ccc(S(=O)(=O)N(C)c2ccc(C(=O)N(CC(C)C)C3CCS(=O)(=O)C3)cc2)cc1` (stereo not drawn), the Potency is reported as inconclusive: 16.4 µM [cytotoxic, partial curve].
For `Cc1ccc(N(Cc2cc3ccc(C)cc3[nH]c2=O)S(C)(=O)=O)c(C)c1`, the Potency was inconclusive: 5.8 µM [cytotoxic, partial curve, poor fit].
In the case of `CNc1n[nH]c(=S)s1`, the Potency is reported as “inactive”.
In the case of `COc1ccc(C(=O)N2CCN(C3CCCCC3)CC2)cc1OC`, the Potency is reported as inconclusive: 0.461 µM [rising, full curve, poor fit].
In the case of `N#Cc1c(N2CCCC2)nc(N)c2c(N)nc(N3CCCC3)cc12`, the Potency is reported as active: 0.731 µM.
For `COc1ccc(CN2CCN(Cc3ccc(C(F)(F)F)cc3)CC2)c(OC)c1`, the Potency was “inactive”.
With `COc1ccc(/C=C2\Oc3cc(OCC(N)=O)ccc3C2=O)cc1OC` the Potency was “inactive”.
With `NC(=O)c1cc2ccccc2o/c1=N/NC(=O)c1ccccc1` the Potency was inconclusive: 20.6 µM [cytotoxic, single point].
